No constants are given. Whether binding was seen depends on the method and setting. In cells and extracts the contact can be indirect. Some results given as binding are weak or reduced against the parent protein; the word gives no strength. For part of these data: Tags and fused reporters may be left off the sequences shown.
B1: hDsg3.myc (protein, UniProt P32926 50-999)
chain: EWVKFAKPCREGEDNSKRNPIAKITSDYQATQKITYRISGVGIDQPPFGIFVVDKNTGDINITAIVDREETPSFLITCRALNAQGLDVEKPLILTVKILDINDNPPVFSQQIFMGEIEENSASNSLVMILNATDADEPNHLNSKIAFKIVSQEPAGTPMFLLSRNTGEVRTLTNSLDREQASSYRLVVSGADKDGEGLSTQCECNIKVKDVNDNFPMFRDSQYSARIEENILSSELLRFQVTDLDEEYTDNWLAVYFFTSGNEGNWFEIQTDPRTNEGILKVVKALDYEQLQSVKLSIAVKNKAEFHQSVISRYRVQSTPVTIQVINVREGIAFRPASKTFTVQKGISSKKLVDYILGTYQAIDEDTNKAASNVKYVMGRNDGGYLMIDSKTAEIKFVKNMNRDSTFIVNKTITAEVLAIDEYTGKTSTGTVYVRVPDFNDNCPTAVLEKDAVCSSSPSVVVSARTLNNRYTGPYTFALEDQPVKLPAVWSITTLNATSALLRAQEQIPPGVYHISLVLTDSQNNRCEMPRSLTLEVCQCDNRGICGTSYPTTSPGTRYGRPHSGRLGPAAIGLLLLGLLLLLLAPLLLLTCDCGAGSTGGVTGGFIPVPDGSEGTIHQWGIEGAHPEDKEITNICVPPVTANGADFMESSEVCTNTYARGTAVEGTSGMEMTTKLGAATESGGAAGFATGTVSGAASGFGAATGVGICSSGQSGTMRTRHSTGGTNKDYADGAISMNFLDSYFSQKAFACAEEDDGQEANDCLLIYDNEGADATGSPVGSVGCCSFIADDLDDSFLDSLGPKFKKLAEISLGVDGEGKEVQPPSKDSGYGIESCGHPIEVQQTGFVKCQTLSGSQGASALSTSGSVQPAVSIPDPLQHGNYLVTETYSASGSLVQPSTAGFDPLLTQNVIVTERVICPISSVPGNLAGPTQLRGSHTMLCTEDPCSRLI

Protein sequences, listed by entry. Tags and fused reporters are not part of them.
UniProt Q03135: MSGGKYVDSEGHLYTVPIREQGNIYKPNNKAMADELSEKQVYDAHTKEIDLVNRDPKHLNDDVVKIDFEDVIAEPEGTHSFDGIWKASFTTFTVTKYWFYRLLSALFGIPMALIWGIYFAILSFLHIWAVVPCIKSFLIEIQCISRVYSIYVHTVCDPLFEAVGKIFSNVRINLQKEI

Tests used:
[1] = biological target: T1, Desmoglein 3 (human (endogenous in HaCaT)) (UniProt P32926); experiment: proximity ligation; Duolink PLA on fixed HaCaT cells, mouse Dsg3 Ab (5H10) with rabbit Cav-1 Ab or rabbit anti-Src; negative control A431-V cells with 5H10 and rabbit anti-Myc tag Ab
T1 sequence: B1 chain

[2] = biological target: T1, Desmoglein 3 (human (endogenous in HaCaT)); experiment: co-IP; immunoprecipitation with mouse antibody against Dsg3 from Triton X-100-soluble and -insoluble fractions of HaCaT cells, 500 µg protein of each fraction; Western blotting
[3] = biological target: caveolin-1 (human (endogenous in HaCaT and A431)) (UniProt Q03135); experiment: co-IP; rabbit caveolin antibody coupled to Dynabeads, overnight at 4 °C, 500 µg total protein; lysates of A431-Vect and A431-hDsg3.myc cells and of HaCaT cells with scrambled or Dsg3 siRNA; Western blotting

Molecule | binding [1] | binding [2] | binding [3]
caveolin-1 (from UniProt Q03135 1-178) | binds | binds | –
B1 | – | – | binds
